In article PMC11161787:
Results are given in words; binding and its absence hold for the method and conditions named. Binding seen in cells or lysates may run through a third protein. A result given as binding can be weak or reduced; the word gives no strength. Where a sequence is shown, tags or fusion partners need not be part of it.

Biological target: EGFP-tagged CCDC6-RET fusion protein
Assay: co-IP; HEK293T cells expressing EGFP-tagged CCDC6-RET (or EV) with mCherry-tagged GRB2, SHC1 or EV; anti-GFP IP, western blotting; cells treated with LOXO292 (1 µM), BLU667 (1 µM) or the solvent DMSO

binding: binds
B1: mCherry-tagged SHC1 (protein, UniProt P29353 1-583)
chain: MDLLPPKPKYNPLRNESLSSLEEGASGSTPPEELPSPSASSLGPILPPLPGDDSPTTLCSFFPRMSNLRLANPAGGRPGSKGEPGRAADDGEGIVGAAMPDSGPLPLLQDMNKLSGGGGRRTRVEGGQLGGEEWTRHGSFVNKPTRGWLHPNDKVMGPGVSYLVRYMGCVEVLQSMRALDFNTRTQVTREAISLVCEAVPGAKGATRRRKPCSRPLSSILGRSNLKFAGMPITLTVSTSSLNLMAADCKQIIANHHMQSISFASGGDPDTAEYVAYVAKDPVNQRACHILECPEGLAQDVISTIGQAFELRFKQYLRNPPKLVTPHDRMAGFDGSAWDEEEEEPPDHQYYNDFPGKEPPLGGVVDMRLREGAAPGAARPTAPNAQTPSHLGATLPVGQPVGGDPEVRKQMPPPPPCPGRELFDDPSYVNVQNLDKARQAVGGAGPPNPAINGSAPRDLFDMKPFEDALRVPPPPQSVSMAEQLRGEPWFHGKLSRREAEALLQLNGDFLVRESTTTPGQYVLTGLQSGQPKHLLLVDPEGVVRTKDHRFESVSHLISYHMDNHLPIISAGSELCLQQPVERKL
